Results deposited as PubChem BioAssay AID504791 (Drosophila RNAi Screening Center, 2011).

- Aim: 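Factors in Argonaute-based small RNA production and activity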 (primary screen)
- Cells: Drosophila S2-derived reporter cells
- Reagent: long dsRNA against Drosophila genes, about 150-250 ng dsRNA per well (siRNA assay); about 80-120 ng (miRNA assay)
- Timing: about 5 days (siRNA assay); about 4 days (miRNA assay)
- Treatment: copper sulfate induction of reporters: 25 µM (siRNA assay); 200 mM stated (miRNA assay), 1-2 days before reading
- Detection: 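Dual luciferase assay: Renilla to firefly signal ratio in each well, scaled to the mean ratio of its plate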
- Direction: siRNA reporter hit score: higher = 3 marks a strong hit with raised ratio; -3 a strong hit with lowered ratio
- Hit rule: 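First-pass picks had plate-scaled ratios over 1.5 for the siRNA assay, over 1.6 for the miRNA assay, or under 0.6; two distinct dsRNAs had to score alike on retest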
The deposit covers about 23,000 reagents; this is a random part of those with a known target gene and a result. Of all reagents, 199 (0.86%) were called active. 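Plate-scaled ratios behind the calls are not deposited; printed light signals are raw; many rows marked increased or decreased are still called inactive.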 A plus sign joins genes that one reagent is predicted to hit.

gene knocked down	dsRNA	siRNA reporter hit score	stable siRNA reporter change	miRNA reporter change	stable assay Renilla, run 1 (luminescence)	stable assay firefly, run 1 (luminescence)	call
DNaseII	DRSC16310				8014	2.97e5	inactive
eIF2alpha	DRSC20327				8762	4.86e5	inactive
CG17770 + Acam	DRSC14110				7999	3.61e5	inactive
CG17770 + Acam	DRSC15264				6664	3.30e5	inactive
Pgam5-2	DRSC04278				7112	4.87e5	inactive
CG7730	DRSC10909				6954	2.90e5	inactive
CG5644	DRSC10531				6107	3.83e5	inactive
Yeti	DRSC21138			reporter ratio raised past the hit cutoff	8462	4.84e5	inactive
CG6171	DRSC15982				7860	5.14e5	inactive
Aplip1	DRSC07947				5672	5.70e5	inactive
Aplip1	DRSC08697				5995	3.19e5	inactive
Aplip1	DRSC21587				8959	5.92e5	inactive
Cog1	DRSC15661				6948	3.90e5	inactive
Or47b	DRSC07492				5847	3.33e5	inactive
CG13876	DRSC08346				6439	3.75e5	inactive
CG33679	DRSC01436				5559	4.13e5	inactive
CG9997	DRSC16591				6634	4.33e5	inactive
CG8785	DRSC07266				8729	6.29e5	inactive
Dpck	DRSC12575				6843	3.98e5	inactive
Ac13E	DRSC19325				7435	5.89e5	inactive
CG3386	DRSC08566				6420	3.62e5	inactive
CG34460	DRSC06974				6511	4.69e5	inactive
Sbf	DRSC16852		reporter ratio raised past the hit cutoff		8076	2.50e5	active
del	DRSC03170				6898	7.23e5	inactive
CG31106	DRSC14655				6719	3.06e5	inactive
CG12849	DRSC04129				6228	3.95e5	inactive
MagR	DRSC20092				4511	4.08e5	inactive
Ran	DRSC20364		reporter ratio raised past the hit cutoff		4891	2.36e5	active
ATPsynB	DRSC09659				7511	4.31e5	inactive
CG40583 (retired record)	DRSC20938				3408	3.13e5	inactive
Grasp65	DRSC10917				7431	3.49e5	inactive
Ptr	DRSC04852				6803	4.03e5	inactive
Ptr	DRSC21517				8527	5.23e5	inactive
mei-9	DRSC18792				6127	3.02e5	inactive
Hrb98DE	DRSC16709	-3	reporter ratio raised past the hit cutoff	reporter ratio raised past the hit cutoff	22140	3.17e5	active
CG42713	DRSC01050				6322	4.98e5	inactive
CG31697	DRSC22273				9722	6.77e5	inactive
CG15425	DRSC00440		reporter ratio lowered past the hit cutoff		6854	6.22e5	inactive
CG3345	DRSC00596				11221	6.26e5	inactive
gprs	DRSC06761				6211	2.36e5	inactive
CG14881	DRSC15005				8459	5.20e5	inactive
CG31008	DRSC14028				6371	3.32e5	inactive
Pex14	DRSC11754				7479	4.43e5	inactive
CG15358	DRSC00388				7946	4.36e5	inactive
CG30183	DRSC04450				6698	3.95e5	inactive
CG30183	DRSC04472				6716	3.63e5	inactive
ND5 (retired record)	DRSC21281				7438	5.64e5	inactive
Vps37B	DRSC12165				8334	4.70e5	inactive
mTerf3	DRSC11759				7639	2.79e5	inactive
CG3520	DRSC04383				5900	3.48e5	inactive
CG12861	DRSC06201				5828	3.09e5	inactive
CG12861	DRSC21960				9678	5.88e5	inactive
CG32726	DRSC17521				5172	3.79e5	inactive
Sytalpha	DRSC02869				7982	4.44e5	inactive
CG15211	DRSC19657				6310	3.74e5	inactive
caly	DRSC07182				11358	4.17e5	inactive
Zfrp8	DRSC04352				6158	3.00e5	inactive
SdhA	DRSC07547				8886	3.54e5	inactive
GstD10	DRSC15346				6791	3.41e5	inactive
CG13829	DRSC14679				7526	3.09e5	inactive
Ccp84Ad	DRSC12589				4679	4.35e5	inactive
Ccp84Ad	DRSC22854				4083	3.82e5	inactive
Arp6	DRSC19326				7051	3.65e5	inactive
CG3108	DRSC18280				7898	4.15e5	inactive
CG18179	DRSC10303				6144	3.44e5	inactive
CG32523	DRSC20510				6226	3.74e5	inactive
CG34305	DRSC11995				7406	4.85e5	inactive

Reprinted from the entries so far, 10 entries:
gene knocked down	dsRNA	siRNA reporter hit score	stable siRNA reporter change	miRNA reporter change	stable assay Renilla, run 1 (luminescence)	stable assay firefly, run 1 (luminescence)	call
CG15425	DRSC00440		reporter ratio lowered past the hit cutoff		6854	6.22e5	inactive
CG3345	DRSC00596				11221	6.26e5	inactive
gprs	DRSC06761				6211	2.36e5	inactive
CG14881	DRSC15005				8459	5.20e5	inactive
CG31008	DRSC14028				6371	3.32e5	inactive
Pex14	DRSC11754				7479	4.43e5	inactive
CG15358	DRSC00388				7946	4.36e5	inactive
CG30183	DRSC04450				6698	3.95e5	inactive
CG30183	DRSC04472				6716	3.63e5	inactive
ND5 (retired record)	DRSC21281				7438	5.64e5	inactive
